In the assay the target is T1, malin (co-expressed in cells) (UniProt Q6VVB1).
T1 sequence: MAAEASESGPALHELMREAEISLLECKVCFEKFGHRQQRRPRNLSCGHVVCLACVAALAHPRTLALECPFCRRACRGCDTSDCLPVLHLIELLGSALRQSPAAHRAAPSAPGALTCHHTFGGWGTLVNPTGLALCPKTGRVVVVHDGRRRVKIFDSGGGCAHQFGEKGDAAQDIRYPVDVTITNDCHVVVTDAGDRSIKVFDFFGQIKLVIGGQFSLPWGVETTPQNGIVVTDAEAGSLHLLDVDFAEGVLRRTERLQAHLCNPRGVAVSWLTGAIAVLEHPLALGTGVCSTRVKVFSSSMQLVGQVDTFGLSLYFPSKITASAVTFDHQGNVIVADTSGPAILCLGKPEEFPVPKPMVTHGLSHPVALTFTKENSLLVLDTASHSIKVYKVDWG
Kind of assay: co-IP.

In publication doi:10.1101/681833 one finds binding data, which are given here for one molecule.

These are yes or no findings as the source states them, for the method shown. In cells and extracts the contact can be indirect. Some entries that bind do so weakly or less than the wild type.

B1: glycogen phosphorylase brain isoform (co-expressed in cells) (enzyme, UniProt P11216 1-843)
chain: MAKPLTDSEKRKQISVRGLAGLGDVAEVRKSFNRHLHFTLVKDRNVATPRDYFFALAHTVRDHLVGRWIRTQQHYYERDPKRIYYLSLEFYMGRTLQNTMVNLGLQNACDEAIYQLGLDLEELEEIEEDAGLGNGGLGRLAACFLDSMATLGLAAYGYGIRYEFGIFNQKIVNGWQVEEADDWLRYGNPWEKARPEYMLPVHFYGRVEHTPDGVKWLDTQVVLAMPYDTPVPGYKNNTVNTMRLWSAKAPNDFKLQDFNVGDYIEAVLDRNLAENISRVLYPNDNFFEGKELRLKQEYFVVAATLQDIIRRFKSSKFGCRDPVRTCFETFPDKVAIQLNDTHPALSIPELMRILVDVEKVDWDKAWEITKKTCAYTNHTVLPEALERWPVSMFEKLLPRHLEIIYAINQRHLDHVAALFPGDVDRLRRMSVIEEGDCKRINMAHLCVIGSHAVNGVARIHSEIVKQSVFKDFYELEPEKFQNKTNGITPRRWLLLCNPGLADTIVEKIGEEFLTDLSQLKKLLPLVSDEVFIRDVAKVKQENKLKFSAFLEKEYKVKINPSSMFDVHVKRIHEYKRQLLNCLHVVTLYNRIKRDPAKAFVPRTVMIGGKAAPGYHMAKLIIKLVTSIGDVVNHDPVVGDRLKVIFLENYRVSLAEKVIPAADLSQQISTAGTEASGTGNMKFMLNGALTIGTMDGANVEMAEEAGAENLFIFGLRVEDVEALDRKGYNAREYYDHLPELKQAVDQISSGFFSPKEPDCFKDIVNMLMHHDRFKVFADYEAYMQCQAQVDQLYRNPKEWTKKVIRNIACSGKFSSDRTITEYAREIWGVEPSDLQIPPPNIPRD
On to B1, for which the binding entry is “binds”.
